Measured values reported in publication doi:10.1101/2022.11.30.518502.

B1: TOM40 (protein, UniProt O96008 1-361)
chain: MGNVLAASSPPAGPPPPPAPALVGLPPPPPSPPGFTLPPLGGSLGAGTSTSRSSERTPGAATASASGAAEDGACGCLPNPGTFEECHRKCKELFPIQMEGVKLTVNKGLSNHFQVNHTVALSTIGESNYHFGVTYVGTKQLSPTEAFPVLVGDMDNSGSLNAQVIHQLGPGLRSKMAIQTQQSKFVNWQVDGEYRGSDFTAAVTLGNPDVLVGSGILVAHYLQSITPCLALGGELVYHRRPGEEGTVMSLAGKYTLNNWLATVTLGQAGMHATYYHKASDQLQVGVEFEASTRMQDTSVSFGYQLDLPKANLLFKGSVDSNWIVGATLEKKLPPLPLTLALGAFLNHRKNKFQCGFGLTIG
B2: TIM23 (protein, UniProt O14925 1-209)
chain: MEGGGGSGNKTTGGLAGFFGAGGAGYSHADLAGVPLTGMNPLSPYLNVDPRYLVQDTDEFILPTGANKTRGRFELAFFTIGGCCMTGAAFGAMNGLRLGLKETQNMAWSKPRNVQILNMVTRQGALWANTLGSLALLYSAFGVIIEKTRGAEDDLNTVAAGTMTGMLYKCTGGLRGIARGGLTGLTLTSLYALYNNWEHMKGSLLQQSL

Target: Myc-Tau^P301L (human)
Assay: co-IP

Row | Binder | binding
1 | B1 | binds
2 | B2 | no binding

These are yes or no findings as the source states them, for the method shown. In cells and extracts the contact can be indirect. Binding calls can cover weak binding; strength is not graded here.
